For two molecules, binding results are on record in PMC6224608.

By UniProt entry, the sequences of proteins in these tests, tags left out. Where a name states a change or a piece, a line headed by the entry shows the natural chain unless it says otherwise.
UniProt Q20849: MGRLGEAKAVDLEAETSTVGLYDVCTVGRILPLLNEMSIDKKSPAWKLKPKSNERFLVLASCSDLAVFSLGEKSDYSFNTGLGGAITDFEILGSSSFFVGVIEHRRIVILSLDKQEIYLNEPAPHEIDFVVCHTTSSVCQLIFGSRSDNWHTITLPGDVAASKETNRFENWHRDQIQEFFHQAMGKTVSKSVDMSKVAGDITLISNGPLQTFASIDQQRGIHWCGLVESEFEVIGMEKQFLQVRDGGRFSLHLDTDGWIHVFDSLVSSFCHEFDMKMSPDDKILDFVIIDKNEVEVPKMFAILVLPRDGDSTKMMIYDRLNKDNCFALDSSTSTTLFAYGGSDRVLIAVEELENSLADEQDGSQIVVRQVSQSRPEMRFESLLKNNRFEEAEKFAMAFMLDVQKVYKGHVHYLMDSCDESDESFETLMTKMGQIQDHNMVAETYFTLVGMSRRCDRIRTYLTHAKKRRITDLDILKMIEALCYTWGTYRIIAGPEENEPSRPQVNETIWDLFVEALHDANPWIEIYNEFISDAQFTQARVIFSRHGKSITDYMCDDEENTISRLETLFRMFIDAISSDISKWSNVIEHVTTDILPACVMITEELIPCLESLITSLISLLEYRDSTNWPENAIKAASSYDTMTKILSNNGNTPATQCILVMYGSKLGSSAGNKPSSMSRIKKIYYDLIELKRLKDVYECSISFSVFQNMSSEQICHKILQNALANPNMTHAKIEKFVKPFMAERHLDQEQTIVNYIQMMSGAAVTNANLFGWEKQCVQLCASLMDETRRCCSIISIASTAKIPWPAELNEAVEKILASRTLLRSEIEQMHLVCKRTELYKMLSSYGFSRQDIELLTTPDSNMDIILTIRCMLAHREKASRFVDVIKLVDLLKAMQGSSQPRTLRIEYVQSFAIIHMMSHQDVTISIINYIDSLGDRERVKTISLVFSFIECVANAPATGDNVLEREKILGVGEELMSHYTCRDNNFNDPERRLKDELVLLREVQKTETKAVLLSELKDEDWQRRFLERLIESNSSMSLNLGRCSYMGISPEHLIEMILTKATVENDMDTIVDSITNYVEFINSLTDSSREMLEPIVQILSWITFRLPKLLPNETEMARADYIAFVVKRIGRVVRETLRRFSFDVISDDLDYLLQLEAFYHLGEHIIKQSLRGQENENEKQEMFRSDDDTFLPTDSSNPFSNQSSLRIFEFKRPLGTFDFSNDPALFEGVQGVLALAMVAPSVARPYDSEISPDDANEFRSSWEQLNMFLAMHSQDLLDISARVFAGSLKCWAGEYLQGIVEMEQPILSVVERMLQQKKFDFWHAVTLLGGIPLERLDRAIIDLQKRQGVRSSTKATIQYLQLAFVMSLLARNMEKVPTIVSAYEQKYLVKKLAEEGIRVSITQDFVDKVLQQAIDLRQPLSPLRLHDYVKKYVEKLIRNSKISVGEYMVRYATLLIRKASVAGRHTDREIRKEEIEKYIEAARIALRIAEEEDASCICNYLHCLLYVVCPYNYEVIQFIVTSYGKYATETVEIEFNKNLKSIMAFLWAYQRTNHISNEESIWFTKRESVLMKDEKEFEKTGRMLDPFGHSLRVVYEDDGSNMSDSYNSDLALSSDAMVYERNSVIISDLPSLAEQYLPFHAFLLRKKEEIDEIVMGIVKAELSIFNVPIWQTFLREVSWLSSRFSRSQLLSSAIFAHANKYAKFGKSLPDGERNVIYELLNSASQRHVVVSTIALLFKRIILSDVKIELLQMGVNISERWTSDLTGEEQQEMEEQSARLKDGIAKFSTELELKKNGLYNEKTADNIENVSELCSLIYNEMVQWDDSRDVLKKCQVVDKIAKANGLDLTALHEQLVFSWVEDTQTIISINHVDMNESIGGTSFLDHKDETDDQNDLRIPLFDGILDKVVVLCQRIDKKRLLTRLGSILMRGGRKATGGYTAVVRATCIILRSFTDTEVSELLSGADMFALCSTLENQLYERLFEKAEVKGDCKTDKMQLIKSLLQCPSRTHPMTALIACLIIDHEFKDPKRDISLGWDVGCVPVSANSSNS

Assay in all cases: SEC; co-expressed in Sf21 cells; nickel affinity by the 6xHis on ROD-1, then Superose 6 10/300 in 25 mM HEPES, 150 mM NaCl, pH 7.5; Coomassie-stained gels of the fractions
In general terms: In gel filtration, larger molecules generally elute earlier.

In assay [1] the target is 6xHis::TEV::GFP::ROD-1 (residues 1-2177) (C. elegans) (UniProt Q20849).
The target in assay [2] is 6xHis::TEV::GFP::ROD-1(Δ1-372) (C. elegans).
In assay [3] the target is 6xHis::TEV::ROD-1(Δ1-372) (C. elegans).

No constants are given. Whether binding was seen depends on the method and setting. A result given as binding can be weak or reduced; the word gives no strength. Tags and fused reporters may be left off the sequences shown.

B1: ZWL-1 (protein, UniProt Q95XP9 1-630)
chain: MPLTIEQLKQYNEKMAAKGEEDDAPAPVLLLDKYRVRVLPLTSIPFVMNHSSVSQLSLSSEDVLVVDFPSKGTGSGAGKAEKKMIFKKKIEPMEDSFEDKENVNEGGPLMTSFLTLEKLRKGMVGDVEIIGYECETSFFDANPIPLSDGVSLQRYIRLNCSEHFSPSISTLPVWISTTSSKFPSICWLAAGRTNRNVQFAAATRVLGHFNNENSERVVKQLNQACGTSQLNKYRAVYEEIRKIATENRPAPGEVTIDVRWSTKSTLVLLEHPDNAADCTIKIDLGWGDKRFFVDDEIFEQLFFVLNLADVLANPDNEVIFPMAPPANFDDLVQEMDALVEASSREDNVFVSNENFRGGDITDKVWNIVRKCNDVKQVTLLFRNFLQALAYGKIKSHAQERNKSHLASLIRISKSSEFKIPVLERLSTIDMMMEIGVESLRRRVIDIFSSQLLYPSDELEFILQTCENDLPAGNGAMNSAAISLLPITMALATANRIYELLNEKDHVILPDLTRRILQKYTASMIEKSRRGETETEYTFETTLPLLRMYKEGFMSKRPCIWTCENSNTVGANVQARVLTSLELQPSLEHINRLVNDSRPVWTATEEKPAMIKDLNADYTVVHTIFSYLPKM
For the molecule B1, the binding entry in assay [1] is on record as “binds”.

B2: StrepTagII::CZW-1 (protein, UniProt Q19642 1-778)
chain: MASSEGSYRDLEKKLKNGLTSISQDIVDKYGNLKVSLNVNATAKLIFDRLENLEDIAEMSTRNLSNLIDQTAKDSPEMLAEIKSQAQSCENLVEFLQSMKNVEEQLIIMRSKTTNRVEWGTAILACKDFLNDTNMLLEGIGRDGFDMSVPLKHFAAEYSVLSYNCRYQLSADYERAMNVPKLSKQKCGDRTNVSFSVFNVGSVEDQKMLNETLSAMNMIGQLPERLDAWKIVILNVFCEAIVASRDGVDVYIVDNPTPDQTRFLINQKPRGKKDKTIDVAKVLESMEVFFTKLHSVLHSHELLDATGKTFTSMIGSVIEEQLITMILKDVIAIAAPVTETADEDQEMFINLLQIGEVFVERMKELGFFSQKAKLLFTLDTDTIFVTRRCFAIVSKANKLINETYDKLVTVGVDDSAIKDIDLLAKAHTHAEHFAKEYGKDLGRLWSHNEDSQFPSFFAFQKCTVSESTINFVNLLRDNVKAAFACEDEGARAKLALTAENIVRLYVILTPRKHAELFSSIPNMAAIFYNNCHYISHCIMTMSFEASGDNQKTLLEPLLLDSVIRLRTVAADCMEKTLTRCRREMTAYLEDHSIFEHLPASYKTTKNTFAAAEEMSESADILVPREEPKIIKCLAACLLHIRLIAKNLREPLTEVVYCKVIGSLVSFLLDSLVRHVVTTSDFRENDANVMADVFKRLLEVVANIVAYKEQTKVTDFCAREYFRLNEIVFVLGNRMQDIEHRWFNAKGPMAEHLSRSEVVGLIKALFADSQHRSDLIARL
With B2, the binding entry in assay [2], in assay [1] and in assay [3] was “binds” throughout.
